Library screen at single concentrations

From ChEMBL document CHEMBL3988442, “University of Dundee, Small-Polar-MMV Screening Library” (2021).

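Whole-parasite assay of Trypanosoma brucei over 72 hours; the read-out is not stated. Concentration: 30 µM. Direction is inferred from retests: higher values go with stronger inhibition. Values scatter widely below zero; nearly all retest evidence comes from the higher of the two concentrations used. Of about 64,000 compounds tested this way, about 940 (1.5%) reached 50% or more in at least one test.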

Results are given as percent effect. How 0% and 100% were set is not recorded. Most values in the screen are low, and negative values occur. This is an unselected part of the compounds tested.

structure,Percent Effect
CC(C)(C)C(O)CN1CCN(CC(=O)NCC(F)(F)F)CC1 (configuration not stated),-50.05%
O=C1CCSCC(C(=O)N2CCN(C3CCCCC3)CC2)N1 (configuration not stated),-48.62%
Cl.Cl.Cn1nc(C2CNCCO2)cc1CCOc1ccc(Cl)cc1 (configuration not stated),53.46%
COc1ccc(CNC(=O)CCN2CCOC(C(F)(F)F)C2)cc1 (configuration not stated),-19.33%
COc1cccc(N2CCN(Cc3cccc(CCN)c3)CC2=O)c1,3.475%
CCc1cnc2c(c1Nc1ccc3c(c1)OCO3)c(=O)n(C)c(=O)n2C,-0.7487%
COC(=O)NCC(=O)NCC(C)(C)c1cccc(C(F)(F)F)c1,5.637%
Cc1nc(-c2ccc(C(=O)O)cc2)cc(C2CCCN(C(C)C)C2)n1 (configuration not stated),-12.36%
O=C(c1cn[nH]c1)N1CCC2(CCCN(Cc3ccc(F)c(F)c3)C2)C1 (configuration not stated),-0.4179%
CCOC1CCC2(CCN(C(=O)c3csnn3)CC2)c2ccccc21 (configuration not stated),-10.83%
Cc1nc(C)c(C(C)NC(=O)NCCNc2cccc(F)c2C#N)s1 (configuration not stated),3.286%
Cc1csc(N2CCN(C(=O)CCc3ccccn3)CC2)n1,6.246%
COCc1cccc(C(=O)N2CCN(C3=NCC(C)(C)S3)CC2)c1,12.89%
Cc1nc(O)cc(CCNC(=O)CN2CCCCCC2)n1,-81.21%
Cc1csc(CNc2cccc(OCCN3CCCC3)c2)n1,-5.583%
CSCC(C)(O)CNS(=O)(=O)c1cccc(Cl)c1 (configuration not stated),8.811%
COc1ccc(OC)c(CNCc2ccnc(N3CCCCC3)c2)c1,10.19%
Cc1csc(CNC(=O)NC2CCCN(S(C)(=O)=O)C2)n1 (configuration not stated),-7.079%
COc1cc(C(=O)N2CCCC2CC(=O)c2cnn(C)c2)ccc1F (configuration not stated),-42.71%
COCc1nc(CN2CC(Cc3ccccc3)CC2=O)no1 (configuration not stated),-19.62%
CN(Cc1n[nH]c2c1CCC2)C(=O)c1cccc(CCC(C)(C)O)c1,10.15%
CN(C)S(=O)(=O)c1ccc(=O)n(CC2CCCCO2)c1 (configuration not stated),-79.02%
CN(Cc1cc2cc(F)ccc2[nH]1)c1cc(C2CCCNC2)ncn1 (configuration not stated),-22.27%
Cl.NCC(=O)N1CCCC1c1nccnc1Nc1ncccn1 (configuration not stated),-17.2%
COCCN(C(=O)c1cnccn1)c1nc2c(s1)CCc1c-2cnn1C,6.835%
CSc1ccc(C)c(C(=O)Nc2c(C(N)=O)n[nH]c2C)c1,1.052%
CC(C)(C)CC(=O)NS(=O)(=O)c1ccc(C#N)cc1C(F)(F)F,-3.467%
Cc1noc(C)c1CN1CC2(CCN(C(=O)c3c[nH]cn3)C2)CC1=O (configuration not stated),-9.216%
O=C(O)C(F)(F)F.O=C(O)C(F)(F)F.[H][C@@]12COC[C@]1(COc1cccnc1)CN(Cc1ccccc1OC)C2,-13.45%
CCN1C(=O)CC[C@]12CC[C@@H](NC(=O)c1cc(C)on1)CC2,-20.92%
CN1CCOC(CNCCOc2cccc(C#N)c2)C1 (configuration not stated),-12.49%
O=C(O)C(F)(F)F.c1csc(CN2Cc3nccn3CC(Cn3cncn3)C2)n1 (configuration not stated),-10.95%
O=C(O)C(F)(F)F.[H][C@@]12CCN(Cc3ccoc3)C[C@]1([H])O[C@@H](C(=O)N(C)C)C2,-50.05%
O=C(O)C(F)(F)F.[H][C@@]12COC[C@@H](NS(C)(=O)=O)[C@]1([H])CN(Cc1ccc(C)o1)C2,23.74%
CCC(NC(=O)CN(C)Cc1ccc(C)o1)c1ccc(C)cc1 (configuration not stated),-19.45%
CCCc1cc(NCCn2cccn2)n2ncnc2n1,-24.33%
[H][C@]12CCC[C@@]1(COCC1CC1)CN(C(=O)Cc1ccco1)C2,-16.66%
CSc1nccc(N2CCC(NCc3ccc4c(c3)OCO4)CC2)n1,-15.85%
CN(c1ccncn1)C1CC2(CCN(C(=O)c3cccs3)C2)C1 (configuration not stated),15.69%
Cc1n[nH]c(C2CN(Cc3ncc(C(C)C)o3)CCO2)n1 (configuration not stated),-9.761%
CCSc1ccc(C(=O)N2CCCCC2C(=O)NC(C)(C)C)cn1 (configuration not stated),-9.953%
CCOc1cccc(NC(=O)c2cscn2)n1,-21.57%
CC(C)n1nc2c(cc1=O)CN(CCOc1cccc(C#N)c1)CC2,-23%
Cn1ccnc1CN(CCO)C(=O)c1nc2ccccc2s1,-7.525%
CC(NC(=O)c1cc2n(n1)CCCN(C)C2)c1cn2ncsc2n1 (configuration not stated),-4.412%
Cc1nccn1CC1CCCN(S(=O)(=O)c2cnn(C)c2)C1 (configuration not stated),-1.856%

Repeated from the top, 3 entries:

structure	Percent Effect
CC(C)(C)C(O)CN1CCN(CC(=O)NCC(F)(F)F)CC1 (configuration not stated)	-50.05%
O=C1CCSCC(C(=O)N2CCN(C3CCCCC3)CC2)N1 (configuration not stated)	-48.62%
Cl.Cl.Cn1nc(C2CNCCO2)cc1CCOc1ccc(Cl)cc1 (configuration not stated)	53.46%